According to article PMC12637173, “Investigation on LASSBio‐1971 and LASSBio‐1974 Cellular Cytotoxic Mechanism and Their Comparative DMPK Profile” (Archiv Der Pharmazie, 2025):

Experiment: Microsomal metabolic stability
Type: in vitro ADME, rat
Conditions: microsomal stability assay; one value per compound
Experimental: The metabolic stability of compounds LASSBio‐1971 (1) and LASSBio‐1974 (2) (10 μM) was incubated in 1 mg/mL of rat microsomes in the presence and absence of the cofactor (i.e., NADPH‐generating system) at the same concentrations as in the previous section. After mixing and incubating at 37°C in a shaking water bath for 1 h, 500 µL cold acetonitrile containing the internal standard was added to terminate the reaction at different time intervals (0, 15, 30, 45, and 60 min).

Row | SMILES | Recovery
1 | C=CC(=O)Nc1ccc2ncc(NC(=O)Nc3ccccc3)nc2c1 [LASSBio‐1971 (1)] | 90.59%
2 | CN(C)C/C=C/C(=O)Nc1ccc2ncc(NC(=O)Nc3ccccc3)nc2c1 [LASSBio‐1974 (2)] | 93.17%
